# Measurements: PubChem BioAssay AID1487 (National Center for Advancing Translational Sciences (NCATS), 2009)
# The other results are listed elsewhere or left out. Further columns of the screen follow, without active or inactive calls. Compounds called inactive in the main read-out are mostly missing here. The note in brackets gives the kind of curve behind each potency; many fits are weak.
# Assay: qHTS Assay for Modulators of Lamin A Splicing
# Conditions: HeLa LMNA splicing GFP/RFP minigene ratio, 48 h
# In short: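 S3 HeLa stable clones carrying a lamin A-EGFP splicing minigene plus DsRed2 were seeded at 600 cells/well in Opti-MEM with 2% FBS, pin-dosed and incubated 48 h at 37°C. Acumen cytometry (488 nm) gave the GFP/RFP total-intensity ratio.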
# [1] = measured here: RFP viability control channel
# [2] = measured here: GFP splicing reporter channel
Compound,AC50 [1],AC50 [2]
COC(=O)[C@H]1C[C@@H]1[C@H](NC(=O)c1cc(C)on1)c1ccccc1,"2.24 µM [falling, partial curve, poor fit]",–
COC(=O)c1c(C)[nH]c(C)c1-c1ccccc1,"20 µM [rising, single point]","3.98 µM [rising, partial curve, poor fit]"
CCc1c(C)sc2c1CCN(Cc1cccc(OC)c1)C2c1ccccc1 (stereo unspecified),"17.8 µM [rising, single point]",–
CC(C)(C)c1csc(NC(=O)Cc2cccs2)n1,"31.6 µM [rising, single point]","0.355 µM [rising, full curve, poor fit]"
CCC(C(=O)NC1CCCC1)N(C(=O)c1snc(C(N)=O)c1N)c1ccc2c(c1)OCCO2 (stereo unspecified),–,"11.2 µM [rising, partial curve, poor fit]"
CCCCCCCCCCCCCCCCOP(=O)([O-])OCC[N+](C)(C)C,"3.55 µM [rising, full curve]","12.6 µM [rising, partial curve]"
COc1ccc(NC(=O)CCCSc2ccccc2)cc1,–,"6.31 µM [falling, partial curve]"
O=[N+]([O-])c1cc(Cl)ccc1N1CCN(c2cccc(C(F)(F)F)c2)CC1,"17.8 µM [rising, partial curve]",–
COc1ccc(C2CC(=O)N3C(=C2C#N)SCC3(O)c2ccccc2)cc1 (stereo unspecified),"14.1 µM [rising, partial curve]",–
CCCCCCc1nc2ccccc2c(=O)n1N,"35.5 µM [rising, single point]",–
O=C(c1cnc2ccc(Cl)cc2c1Cl)N1CCOCC1,"7.08 µM [falling, partial curve, poor fit]",–
COc1ccccc1NC(=O)C1=C(C)Nc2c(C(=O)Nc3ccc(C)cc3)cnn2C1c1cccc(OC)c1OC (stereo unspecified),"0.158 µM [falling, full curve, poor fit]","22.4 µM [falling, partial curve, poor fit]"
O=C(CSc1ncnc2c1cnn2CCO)Nc1cccc(C(F)(F)F)c1,"35.5 µM [rising, single point]","15.8 µM [rising, single point]"
COc1ccc(CNC(=O)Cn2c(=O)nc(-c3ccccc3)c3cc(Cl)ccc32)cc1OC,"0.01 µM [rising, full curve, poor fit]","0.0126 µM [rising, full curve, poor fit]"
Cc1ccc(Sc2ncnc3onc(C)c23)cc1,"11.2 µM [rising, partial curve, poor fit]",–
COc1cccc(C(=O)Nc2ccc(-n3nncc3-c3ccccc3)cc2)c1OC,–,"11.2 µM [falling, partial curve, poor fit]"
CN(CC(O)COC(c1ccccc1)c1ccccc1)C1CCCCC1 (stereo unspecified),–,"20 µM [falling, partial curve, poor fit]"
O=c1cnc2cnc(Nc3ccccc3)nc2n1Cc1cccs1,"11.2 µM [falling, partial curve]","10 µM [falling, partial curve]"
O=C(Nc1cccc(S(=O)(=O)NCc2ccco2)c1)c1cc(-c2ccc(F)cc2)nc2ccccc12,"35.5 µM [rising, single point]",–
Cc1sc(NC(=O)C2C3C=CC(C3)C2C(=O)O)c(C(N)=O)c1-c1ccc(C(C)C)cc1 (stereo unspecified),"22.4 µM [rising, partial curve]","12.6 µM [rising, partial curve]"
COc1ccc(-c2[nH]ncc2-c2nc(C)cs2)c(O)c1,–,"0.0141 µM [falling, full curve, poor fit]"
O=C(CCl)N(c1ccc(Cl)cc1)c1c[nH]c2ccccc12,"35.5 µM [falling, single point]","35.5 µM [falling, single point]"
COc1ccccc1NC(=O)C1=C(C)Nc2nnnn2C1c1ccccn1 (stereo unspecified),"35.5 µM [rising, single point]",–
O=C(Nc1ccc(Cc2ccncc2)cc1)C1CCC(N2C(=O)C3CC=CCC3C2=O)CC1 (stereo unspecified),"20 µM [rising, single point]",–
CCOc1cc(N2CCOCC2)c(OCC)cc1NC(C)C(=O)N1CCN(CC)CC1 (stereo unspecified),–,"0.794 µM [falling, full curve, poor fit]"
Cc1nc2c(C(=O)NCCC(C)C)c[nH]n2c(=O)c1Cc1ccccc1F,"14.1 µM [falling, partial curve]","11.2 µM [falling, partial curve]"
CC(=O)Nc1ccc(N=Nc2ccc(O)cc2)cc1,"25.1 µM [rising, single point]",–
COc1ccc(-c2noc(CCCC(=O)Nc3cccc(Cl)c3C)n2)cc1,"14.1 µM [falling, partial curve, poor fit]","22.4 µM [falling, single point]"

Compound,AC50 [1],AC50 [2]
CC(NC(=O)/C=C/c1ccc(Br)cc1)c1ccccc1 (stereo unspecified),"11.2 µM [rising, partial curve, poor fit]",–
Cc1ccc(-c2cnc(NC(=O)c3cccc(Br)c3)s2)c(C)c1,"12.6 µM [rising, partial curve]","1.26 µM [rising, partial curve, poor fit]"
CCn1c(COc2ccccc2C)nnc1SCC(=O)N1CCC(C)CC1,"12.6 µM [rising, single point]","11.2 µM [rising, single point]"
O=C(/C=C/c1ccccc1Cl)Nc1cccc(S(=O)(=O)NC2=NCCCCC2)c1,"17.8 µM [rising, partial curve]","11.2 µM [rising, partial curve]"
Cc1ccc(NC(=O)CSC2=C(C#N)C(c3ccco3)C3=C(CCCC3=O)N2)cc1 (stereo unspecified),"10 µM [rising, partial curve]",–
O=C(NC(Nc1ncc(S(=O)(=O)c2ccc([N+](=O)[O-])cc2)s1)(C(F)(F)F)C(F)(F)F)c1ccc(Cl)cc1,"5.62 µM [rising, full curve]",–
Cc1ccc2sc(N(Cc3cccnc3)C(=O)Cc3ccccc3)nc2c1C,"15.8 µM [rising, partial curve]","7.94 µM [rising, partial curve, poor fit]"
CC1=C(C(N)=O)C(c2cccc(O)c2)n2ncnc2N1 (stereo unspecified),–,"7.08 µM [rising, partial curve, poor fit]"
CCCc1nc(NCc2ccncc2)c2nnn(Cc3ccccc3F)c2n1,"14.1 µM [rising, partial curve, poor fit]",–
Cc1oc(-c2ccccc2Cl)nc1CSCC(=O)N1CCCC1,"2.24 µM [rising, full curve]",–
Cc1ccc(-n2c(C)cc(C3=NNC(=NC4CC4)SC3)c2C)cc1C,"12.6 µM [rising, single point]","14.1 µM [rising, single point]"
CC(=O)c1ccccc1OCC(O)CN1CCN(C(c2ccccc2)c2ccccc2)CC1 (stereo unspecified),"15.8 µM [rising, single point]",–
O=C(c1cc(-c2ccccc2O)on1)N1CCc2ccccc2C1,"12.6 µM [rising, single point]",–
COc1ccc(CNC(=O)COC(=O)CC2CC3CCC2C3)cc1OC (stereo unspecified),"0.891 µM [falling, full curve, poor fit]","0.2 µM [falling, full curve]"
Cc1nc2ccn(Cc3cccs3)c(=O)c2cc1C(=O)NCc1ccc(Br)cc1,"3.55 µM [rising, single point]",–
CCNc1ccc(C(=O)OCC)cc1NC(=O)c1cccc(N(C)C)c1,"11.2 µM [rising, partial curve]","31.6 µM [rising, single point]"
COC(=O)c1cccc(NC(=S)N2CCOCC2)c1,"3.16 µM [rising, single point]",–
COc1ccc(CCCc2nnc(SCC(=O)Nc3nc(C)cs3)n2C)cc1C,"12.6 µM [rising, partial curve, poor fit]",–
CCc1nnc(NC(=O)CSc2nc3cccnc3n2Cc2ccccc2)s1,"10 µM [rising, partial curve, poor fit]",–
Cc1ccccc1-c1nc(N(C)Cc2ccco2)c2ccccc2n1,–,"11.2 µM [falling, partial curve]"
Cc1ccc(NC(=O)CSc2nc3ccccc3n2CC(=O)N2CCC(C)CC2)cc1C,"0.158 µM [rising, full curve, poor fit]",–
CCCSc1nc(N2CCOCC2)c2c(c1C#N)CC(C)(C)SC2,–,"17.8 µM [rising, partial curve, poor fit]"
COc1ccc(CCNC(=O)Cn2nnc(-c3ccc(Cl)cc3)n2)cc1OC,"2.82 µM [falling, partial curve, poor fit]","0.398 µM [falling, full curve, poor fit]"
Cc1ccc(SCCC(=O)N2CCCC2)cc1,–,"35.5 µM [rising, single point]"
Cc1cccc(C)c1NC(=O)N1C2CCCC1CC(NC(=O)C(C)(C)C)C2 (stereo unspecified),"25.1 µM [rising, single point]",–
CCN1CCc2nc(N)oc2CC1,"0.2 µM [rising, full curve, poor fit]","0.141 µM [rising, full curve, poor fit]"
COc1ccc(Cn2nnnc2C(c2ccccn2)N2CCN(c3cc(Cl)ccc3C)CC2)cc1 (stereo unspecified),"22.4 µM [rising, partial curve]","14.1 µM [rising, partial curve, poor fit]"

# Full records from above.
# `COc1cccc(C(=O)Nc2ccc(-n3nncc3-c3ccccc3)cc2)c1OC` is entered as AC50 [2]: 11.2 µM [falling, partial curve, poor fit]
# `COc1ccc(C2CC(=O)N3C(=C2C#N)SCC3(O)c2ccccc2)cc1` (stereo unspecified) is entered as AC50 [1]: 14.1 µM [rising, partial curve]
# `Cc1nc2ccn(Cc3cccs3)c(=O)c2cc1C(=O)NCc1ccc(Br)cc1` is entered as AC50 [1]: 3.55 µM [rising, single point]
